Assay: Polymerization of acrylamide in water at 70° C. with the compound as initiator; polymerization rate at each time

| Compound | Rate of Polymerization (%) (Polymerization Time 0.5 H) | Rate of Polymerization (%) (Polymerization Time 1 H) | Rate of Polymerization (%) (Polymerization Time 1.5 H) | Rate of Polymerization (%) (Polymerization Time 2 H) | Rate of Polymerization (%) (Polymerization Time 3 H) | Rate of Polymerization (%) (Polymerization Time 4 H) | Rate of Polymerization (%) (Polymerization Time 5 H) | Rate of Polymerization (%) (Polymerization Time 6 H) |
| --- | --- | --- | --- | --- | --- | --- | --- | --- |
| 2,2′-azobis [Example 2, 2,2′-azobis [2-methyl-1-(N-pyrrolidinyl)iminopropane]] | 25.7% | 59.0% | 67.0% | 72.7% | 78.3% | 85.8% | 89.3% | 87.8% |
| CC(C)(N=NC(C)(C)C(=N)N)C(=N)N.Cl [Comparative Compound 1, 2,2′-azobis(2-methylpropionamidine) hydrochloride] | 59.9% | 70.7% | 76.5% | 76.8% | 76.3% | 75.8% | 76.5% | 76.2% |
| CC(C)(N=NC(C)(C)C(=O)NCCO)C(=O)NCCO [Comparative Compound 2, 2,2′-azobis[N-(2-hydroxyethyl)-2-methylpropionamide]] | 11.5% | 18.5% | 24.5% | 30.5% | 41.4% | 54.0% | 63.5% | 71.0% |

From patent US6403774B1, “Azoamidine compound” (Wako Pure Chemical Industries, Ltd., priority 2000, dated 2002)
